Assay results: PubChem BioAssay AID1347426 (Functional Genomics Laboratory (NCATS/FGL), 2020)
Out of some 31,000 sequences screened, about 1,400 (4.5%) were called active.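 Rule for the calls: active = median seed-adjusted z-score above 1 or below -1; inactive = the rest.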 This is one part of the list.

Assay: Novel Modifiers of Survival Motor Neuron (SMN) Protein: Gene Identification via Genome-wide siRNA Screen;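 note: luminescence tracks full-length SMN protein made from the SMN2 reporter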
Details: HEK293T SMN2-luciferase reporter, siRNA knockdown, 72 h; actives lie on both sides
In short: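 HEK293T cells stably carrying an SMN2 promoter/splicing cassette–luciferase reporter were reverse-transfected with 1 pmol siRNA per well (druggable-genome library, 3 siRNAs per gene) and grown 72 h at 37 °C. Luminescence, normalized to negative-control siRNA and log10-transformed, was scored as MAD.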

| Sequence | median seed-adjusted z-score |
| --- | --- |
| GGCUAGAUGAGUGUCAGAUTT against ST6GALNAC4 | inactive: -0.39 |
| GGACGAACGAAGGACUAUUTT against FNBP1L | inactive: -0.0815 |
| CUGUAGCAAUUGGAGUAAATT against WRN | inactive: -0.00482 |
| CCAAGACUCUUUGUACUCATT against PDE4D | inactive: 0 |
| CGAGAUGCCGGUACUUAAATT against RASSF2 | inactive: -0.649 |
| ACUACAUCGUUAUUUUCUATT against FOXD4L1 | inactive: 0.271 |
| GCAGAGACCUACAAAAAGATT against RCN3 | active: -2.44 |
| CCAUUACAUUAUAAGAGUUTT against PPIG | inactive: -0.0192 |
| GCCCAGUACAAAUUCUUCATT against RNASE6 | inactive: 0.832 |
| GCCCUGAUUUGAAGGGAAATT against AIF1 | inactive: -0.0293 |
| CAUUAGCAAUUGUAGCAAUTT against TMPRSS11F | inactive: -0.289 |
| CGAAUACAAGAACGCAGAATT against KLRC2 | inactive: -0.472 |
| GCACCCGUGUGGUUGCUAATT against PTTG1 | inactive: -0.459 |
| GGGUAUUUUGAUUUCCGAATT against PGBD1 | inactive: 0.925 |
| GCUAUAUCAGGAUGAGAUATT against ATG5 | inactive: -0.0597 |
| AGAAUCUGUUCACCGCAAATT against RFPL1 | inactive: 0.195 |
| CGAUCGGAAUGUAUACCCATT against SGCE | inactive: 0.202 |
| GGAUAUAAACCAGUAUGGATT against ZMIZ1 | inactive: -0.382 |
| GGACACUUUUAGUUAAGAATT against STK17A | inactive: 0 |
| CGACCUUAAACGUAUAGUATT against CFI | inactive: -0.596 |
| GCGUAAGAAUGACCGCCUATT against COPG | inactive: 0.175 |
| GAAUGAGGCAUAUCAAGCATT against TUBD1 | inactive: -0.00491 |
| GCCGUUUCAUGUUUGUCUATT against TRPV1 | inactive: -0.12 |
| CAGUCCUACAGGUUCAUCATT against PIP5K1C | inactive: -0.13 |
| GGUAAAGGGAAGUAACUAUTT against SLC2A13 | inactive: -0.0451 |
| AGAACGUGCUCUUCGCUCATT against PRKAR1B | inactive: -0.0406 |
| GGAUAGUGAUGAUGUCUAUTT against GPR98 | inactive: -0.509 |
| GCAAGCAUACGUCAAUGUATT against GTF3C5 | inactive: 0.493 |
| CGGACUUUCAGAUCCCUAUTT against SYT4 | inactive: -0.354 |

Look-ups from the results shown:
In median seed-adjusted z-score, CGACCUUAAACGUAUAGUATT against CFI is entered as inactive: -0.596
In median seed-adjusted z-score, GGAUAUAAACCAGUAUGGATT against ZMIZ1 is entered as inactive: -0.382
